Binding signal data for 42 sequences are collected here from PMC7819943, “Rice protein-binding microarrays: a tool to detect cis-acting elements near promoter regions in rice”.

The chains behind the UniProt entries cited, without tags or fusion partners.
UniProt Q0JBA9, entry or part of it: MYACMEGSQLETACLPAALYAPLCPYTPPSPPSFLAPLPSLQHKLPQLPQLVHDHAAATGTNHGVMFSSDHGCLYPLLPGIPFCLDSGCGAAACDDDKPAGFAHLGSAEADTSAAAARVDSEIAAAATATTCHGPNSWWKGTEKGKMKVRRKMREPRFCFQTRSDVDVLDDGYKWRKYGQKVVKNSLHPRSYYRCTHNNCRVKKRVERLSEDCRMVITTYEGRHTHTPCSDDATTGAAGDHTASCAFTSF

The list shows a part of the results.

This assay deals with OsWRKY34 (Oryza sativa, UniProt Q0JBA9 1-250). Nature of the assay: protein-binding microarray (RPBM); PBS, 2% BSA, 51.3 ng/ul salmon testes DNA, 50 uM zinc acetate, 200 nM TF, 25 C, 1 h; high values mean tight binding. The following applies: protein: recombinant; tags: N-terminal polyhistidine and DsRed monomer fusion (pET32a); label: CyDye5-dUTP incorporated in the synthesized complementary strand; 3' TTTTT single-stranded linker to array surface; dsDNA, one strand shown. The method, boiled down:
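Ni–NTA purification followed expression in E. coli BL21-CodonPlus of transcription factors fused N-terminally to a polyhistidine tag and DsRed. At 200 nM in PBS with 2% BSA, salmon testes DNA and 50 µM zinc acetate, the protein was incubated for 1 h at 25 °C with a custom Agilent array that had been primer-extended with Cy5-dUTP and blocked with 2% BSA. After washing, the array was read on an Axon 4000B scanner. The binding signal is per-feature fluorescence intensity in arbitrary units.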
Turning to “GATTGGCTACACGCATATAGTTGCACGCATGCATGGTATTCGGAGTCACCTAGTGCAG”, the binding signal is 10100 fluorescence intensity (a.u.). With “GTTCTTGCTTTACACTGTTTGACCACTCGTCTTGTTCAAACGGAGTCACCTAGTGCAG”, the binding signal was 10300 fluorescence intensity (a.u.). For the sequence “ACTTCTACATAATTACTGTCTTTGTTGAGGGGTAAACTACCGGAGTCACCTAGTGCAG”, the binding signal was 10900 fluorescence intensity (a.u.).

For the sequence “CCGCTCTTGATTAGGTCGATGGGGTAATTTCTCTGTGTTTCGGAGTCACCTAGTGCAG”, the binding signal was 12000 fluorescence intensity (a.u.). Turning to “TCTACAAATAAATTTCATAATCTACTCGGTTTAGTTGTTTCGGAGTCACCTAGTGCAG”, the binding signal is 8150 fluorescence intensity (a.u.). Then “GAACAGGTCTATGCTGTTTGCCTTAGCTGCTGTGTCAGATCGGAGTCACCTAGTGCAG”, with 8250 fluorescence intensity (a.u.); and “GTGACTCATATCACCCCACAATTCACATATTCTTAATCCCCGGAGTCACCTAGTGCAG”, with 11900 fluorescence intensity (a.u.). Turning to “TATATCTAACCCTTTTCCTTCAATTTCAATGCCTTTTAAACGGAGTCACCTAGTGCAG”, the binding signal is 8210 fluorescence intensity (a.u.). As to “ACCTCGACCACGTACGCCGCCGTCCCTTGCAGCTCCGCCGCGGAGTCACCTAGTGCAG”, the binding signal is 8730 fluorescence intensity (a.u.). Turning to “ATATATATATATATATATATATATATATCATCGAAAATGTCGGAGTCACCTAGTGCAG”, the binding signal is 8830 fluorescence intensity (a.u.). For “TTGTCCAATCGTGGAGATGTCTCGTTTCTAGTCGCCAAAACGGAGTCACCTAGTGCAG”, the binding signal was 8810 fluorescence intensity (a.u.). With “GCAGTTGCGGCATTCCGACGAACACCTCGCGCGCGCGCGCCGGAGTCACCTAGTGCAG”, the binding signal is 8220 fluorescence intensity (a.u.).

With “ACGAGATCATCATCTGTAGTTCTTTTGTTGTGCTTTTCATCGGAGTCACCTAGTGCAG”, the binding signal was 10100 fluorescence intensity (a.u.).

With “CTCCTACCTCTACCGCTGCTACTCACCACACCAGCCGCCGCGGAGTCACCTAGTGCAG”, the binding signal is 8650 fluorescence intensity (a.u.).

For “AACTGTATTCTTTGACCTGAACTCTTGCACTCCTATCTCGCGGAGTCACCTAGTGCAG”, the binding signal is 12400 fluorescence intensity (a.u.).

As to “CGCCGCCGCCGCCGCCGATCCCCATCCATCCCGCGAGCAACGGAGTCACCTAGTGCAG”, the binding signal was 8120 fluorescence intensity (a.u.). On to “CTATCAATGCGAGGGTCCCACTATTTTTTTATTATTTTGTCGGAGTCACCTAGTGCAG”, for which the binding signal is 8110 fluorescence intensity (a.u.). Then “GAACTCATTTTGTTGTTTACCTCATTTCTATTCAGGAAACCGGAGTCACCTAGTGCAG”, with 8970 fluorescence intensity (a.u.). As for “AGTTATTTTTTATATTTAATACTTCATACATGTGTCTATACGGAGTCACCTAGTGCAG”, the binding signal was 10100 fluorescence intensity (a.u.).

With “TACTCTAAACCAATTTACCGTACCAATCTCTGAAAAGGATCGGAGTCACCTAGTGCAG”, the binding signal is 8270 fluorescence intensity (a.u.). “CGACCCCGACCCCGCCGCCGACTACGCCTGGTCCACGCCCCGGAGTCACCTAGTGCAG”: the binding signal was 8240 fluorescence intensity (a.u.). As for “TCCGGGTCTGTTTTCGTCGGGTCTCGGGTTTCCTTGCTCGCGGAGTCACCTAGTGCAG”, the binding signal is 8100 fluorescence intensity (a.u.).

Take “GTGCAATTGGTTTTTTCGTCTATATTTAATGCTCTATATACGGAGTCACCTAGTGCAG”: the binding signal is 8030 fluorescence intensity (a.u.). “GTGACCATCGGCTAGATTCCATTGACTTTGTTACATCATTCGGAGTCACCTAGTGCAG”: the binding signal was 9770 fluorescence intensity (a.u.). With “ATTTACATGGTTTTCAGTTTCTGCATAGTTACATCTTCTACGGAGTCACCTAGTGCAG”, the binding signal was 8540 fluorescence intensity (a.u.). In the case of “TCCCTCCACACACCTCGTACCTCGATCTCGAAGCTTAATTCGGAGTCACCTAGTGCAG”, the binding signal is 8930 fluorescence intensity (a.u.). As to “TCTTTGTTCTGGATGCAGCTATCCCTTGGGCTTGAGTGCTCGGAGTCACCTAGTGCAG”, the binding signal was 8280 fluorescence intensity (a.u.). Then “CATTTCCATTGCTGCATAACAGGTGTGTGCATGGGTATATCGGAGTCACCTAGTGCAG”, with 8440 fluorescence intensity (a.u.); and “CTGGGTGTGGGTGATGAGTTGGGGTACGTCCCAGGGTCTCCGGAGTCACCTAGTGCAG”, with 8880 fluorescence intensity (a.u.); and “TTTGCCGTTGAAGATTATACAGTACATTCTTTTTGCAACACGGAGTCACCTAGTGCAG”, with 8300 fluorescence intensity (a.u.). Turning to “CAAGCCATCCATTCCATGCATCCATCCATCCATGCATTTGCGGAGTCACCTAGTGCAG”, the binding signal was 12700 fluorescence intensity (a.u.). “GGGGTAGGGTTTGCATGCTTGAGTTCATAGGGTACGTCGCCGGAGTCACCTAGTGCAG”: the binding signal was 13500 fluorescence intensity (a.u.). Turning to “TGATTCTACTTATTATTTATTTAAACATGCTACTATTCATCGGAGTCACCTAGTGCAG”, the binding signal was 9600 fluorescence intensity (a.u.). Take “AAAATCCAATCAAGCCACCCAATTCCATGCTTTTCACTTTCGGAGTCACCTAGTGCAG”: the binding signal is 8560 fluorescence intensity (a.u.).

Turning to “TTCACATAATCGTGCACGTTCCAGATCGGGCTATTGCATTCGGAGTCACCTAGTGCAG”, the binding signal is 9060 fluorescence intensity (a.u.).

Turning to “TTTTAGGTGTATGAACAATTTTTTTTACCCCTTCTCATTTCGGAGTCACCTAGTGCAG”, the binding signal was 8120 fluorescence intensity (a.u.). “TCTACTTCCCTCAATCACTCGTTTCTTTTTTATTATTATTCGGAGTCACCTAGTGCAG”: the binding signal is 10700 fluorescence intensity (a.u.). On to “CATGGAATGTTTTCTACTCGTAGCTTGGAATGGTCAAACCCGGAGTCACCTAGTGCAG”, for which the binding signal was 8710 fluorescence intensity (a.u.). On to “GGCGGCAGGGTCTATTTTTGTAATTTTTTGTGCCGATAGACGGAGTCACCTAGTGCAG”, for which the binding signal was 9630 fluorescence intensity (a.u.). Turning to “ACCACTTAATGCGATCTTATCCTCTCGCTGTCTCGCACTCCGGAGTCACCTAGTGCAG”, the binding signal is 11900 fluorescence intensity (a.u.). Turning to “TGGTTGGTTTGTTGGGTTCTTTTCCTTTTTTTTGTTTCTTCGGAGTCACCTAGTGCAG”, the binding signal is 26700 fluorescence intensity (a.u.). Then “CAAACCTTCTGTTCAGATCATCTATTTATTATCTTCAGCACGGAGTCACCTAGTGCAG”, with 8670 fluorescence intensity (a.u.).
